# From publication PMC7819943, “Rice protein-binding microarrays: a tool to detect cis-acting elements near promoter regions in rice”
# Protein sequences, listed by entry. Tags and fused reporters are not part of them.
# UniProt Q0JBA9, entry or part of it: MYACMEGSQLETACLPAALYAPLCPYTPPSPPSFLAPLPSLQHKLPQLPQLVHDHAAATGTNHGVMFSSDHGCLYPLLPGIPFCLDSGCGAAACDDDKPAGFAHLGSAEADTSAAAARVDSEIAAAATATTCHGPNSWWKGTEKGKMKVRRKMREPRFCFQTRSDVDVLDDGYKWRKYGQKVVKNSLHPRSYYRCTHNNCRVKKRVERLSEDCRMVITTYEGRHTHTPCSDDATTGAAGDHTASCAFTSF
# Some of the results follow.
# Target: OsWRKY34 (Oryza sativa, UniProt Q0JBA9 1-250)
# Assay: protein-binding microarray (RPBM); PBS, 2% BSA, 51.3 ng/ul salmon testes DNA, 50 uM zinc acetate, 200 nM TF, 25 C, 1 h; high values mean tight binding
# Conditions: protein: recombinant; tags: N-terminal polyhistidine and DsRed monomer fusion (pET32a); label: CyDye5-dUTP incorporated in the synthesized complementary strand; 3' TTTTT single-stranded linker to array surface; dsDNA, one strand shown
# Method in brief: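 Binding signal here means per-feature fluorescence intensity in arbitrary units. The values were read on an Axon 4000B scanner after a custom Agilent array, double-stranded by primer extension with Cy5-dUTP, was incubated with 200 nM protein at 25 °C for 1 h in PBS with 2% BSA, salmon testes DNA and 50 µM zinc acetate, then washed. The proteins were transcription factors with an N-terminal polyhistidine tag and DsRed, expressed in E. coli BL21-CodonPlus and purified on Ni–NTA.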
row,Sequence,binding signal
1,CCAAACACTTCACCGGTTCACCCTTTGTCCTATTCCGTTCCGGAGTCACCTAGTGCAG,9550 fluorescence intensity (a.u.)
2,TCATCGCCATTTCTGACACTCCTTACCCAACTACAATGTCCGGAGTCACCTAGTGCAG,8200 fluorescence intensity (a.u.)
3,CTCCACTCCCTCAACCTACTCGCGGTGCCGCCATTGCCGCCGGAGTCACCTAGTGCAG,9260 fluorescence intensity (a.u.)
4,TATGGTTGGTTCGAAGTTCTTTTGCTGCTGAATGTTATATCGGAGTCACCTAGTGCAG,13600 fluorescence intensity (a.u.)
5,AGACCCAATATTGCTCCAACCAGTGAAGCTACCGAGTTTCCGGAGTCACCTAGTGCAG,8370 fluorescence intensity (a.u.)
6,CTACCCCTACCTGGCGCGCCAACTGTCGAAACTAGATTTCCGGAGTCACCTAGTGCAG,9070 fluorescence intensity (a.u.)
7,TTTGCGGCCTTTGTTGTGAGACACTCAAAAGAACATGTACCGGAGTCACCTAGTGCAG,8430 fluorescence intensity (a.u.)
8,TATTAGTTATGTTTGGAGTACTTGTCACATGTAAAGCATACGGAGTCACCTAGTGCAG,8450 fluorescence intensity (a.u.)
9,TCTTTTAGATTTTTTTGTGATTTGTGGATGATTTTATTTCCGGAGTCACCTAGTGCAG,9560 fluorescence intensity (a.u.)
10,CCGGTCCATCCATCCTGTATACTATGTTTAACTGATCTTGCGGAGTCACCTAGTGCAG,10500 fluorescence intensity (a.u.)
11,GCTTTATATATCCATGCATGCACCTCCCTATCCTTCACACCGGAGTCACCTAGTGCAG,8780 fluorescence intensity (a.u.)
12,TCGATTGGGGATTGGGGATTGGGGATCAGGAGGGATGGGGCGGAGTCACCTAGTGCAG,20900 fluorescence intensity (a.u.)
13,TAGTTGCCAGCTCAACTGCTCTGTTGACCTGAAATGCTGCCGGAGTCACCTAGTGCAG,8480 fluorescence intensity (a.u.)
14,ATTGTCGACCCATCCTTTGATTCTCGATCCAAATATTCAACGGAGTCACCTAGTGCAG,8270 fluorescence intensity (a.u.)
15,TCTTTTTCCCTTTCGCATCTGTTTTTATCTCTTATTATCTCGGAGTCACCTAGTGCAG,9440 fluorescence intensity (a.u.)
16,ATTGCTACTGAATCTGAAGCACCACCACTCCATCTCCATTCGGAGTCACCTAGTGCAG,8860 fluorescence intensity (a.u.)
17,TTATCCCCGTTCTATCATTTTCTTTCATTTCATATAGTATCGGAGTCACCTAGTGCAG,12800 fluorescence intensity (a.u.)
18,TTGTTCTTTTGTCTTTTACCTGTGTCTATTAGATTTTAATCGGAGTCACCTAGTGCAG,13600 fluorescence intensity (a.u.)
19,CCCTACTTCTCTTCTTTCATAAAGTCATACCACCTTACTTCGGAGTCACCTAGTGCAG,9330 fluorescence intensity (a.u.)
20,TCTCGTCCAGAAAGGCAATGGAATATACTCTACTGCTCGTCGGAGTCACCTAGTGCAG,8620 fluorescence intensity (a.u.)
21,CGTAAACATCTGATGAGTACCTCACATGTTGAACATCTCCCGGAGTCACCTAGTGCAG,8260 fluorescence intensity (a.u.)
22,GACCTTTGGGTAGGGGTGGGGATGGGGCGAAATTACTAAACGGAGTCACCTAGTGCAG,30300 fluorescence intensity (a.u.)
23,ACCATCATCAGTATAAATCCGCCATCTCCTTTCTCGCGCCCGGAGTCACCTAGTGCAG,9020 fluorescence intensity (a.u.)
24,TCCAACTTTTCCATCACATCAAAACTTTCCTACATACATACGGAGTCACCTAGTGCAG,8430 fluorescence intensity (a.u.)
25,GCGCCGATCGATCGATGCAGCACTGGTATCATCTTCTTGTCGGAGTCACCTAGTGCAG,8530 fluorescence intensity (a.u.)
26,ACAGCCAAACATACCCGTAATTTATAGTTCCAATATTTTCCGGAGTCACCTAGTGCAG,8560 fluorescence intensity (a.u.)
27,TTCCCTGTAACTCTCCCCATTCCTTCCCTTGGCGTAAAATCGGAGTCACCTAGTGCAG,9300 fluorescence intensity (a.u.)

row,Sequence,binding signal
1,TTCAGTTTTTCTGCTTTTTTTCTTGTGTTTGATCTGAATACGGAGTCACCTAGTGCAG,9340 fluorescence intensity (a.u.)
2,CAAAATATTAACCATCCTGATTTTTCTGTTATTCATTCCTCGGAGTCACCTAGTGCAG,9510 fluorescence intensity (a.u.)
3,CTATTGGGATCCACCTATCAGCTGCTATCTCCTTTCTTCACGGAGTCACCTAGTGCAG,10500 fluorescence intensity (a.u.)
4,ATTCATGTCACCCACTTCTCCCTTGTCTTCTCACCACCCACGGAGTCACCTAGTGCAG,9160 fluorescence intensity (a.u.)
5,TCCGTCCTCGTCACCGCCGCCACCGCCGCCCCACCGCCAGCGGAGTCACCTAGTGCAG,8680 fluorescence intensity (a.u.)
6,TCGTTTGTAGCTAGTTGCTGTGTGTTCTTGCTTCCGGTTTCGGAGTCACCTAGTGCAG,9120 fluorescence intensity (a.u.)
7,GGGAATAACAATGGGAACGTCACCCCTTCCTGTACGGTTTCGGAGTCACCTAGTGCAG,9050 fluorescence intensity (a.u.)
8,CACCGTTAACTTTTTATTACGTATTTGACCATTTGTCTTACGGAGTCACCTAGTGCAG,10200 fluorescence intensity (a.u.)
9,TATTTTCTTTTCTGTTGGTAGTACATTCTTTTCCTTTTTCCGGAGTCACCTAGTGCAG,11200 fluorescence intensity (a.u.)
10,CGTGTTGCTGCCTGTGGGCTACCCGGTCTATACATGCAAACGGAGTCACCTAGTGCAG,9500 fluorescence intensity (a.u.)
11,CTGCAATATTGTTTATTCATCTTGTTTTCTCCTTTTTTTACGGAGTCACCTAGTGCAG,13500 fluorescence intensity (a.u.)
12,TTTTGGGGATAGATTTGCGCTTTTGGTGGGTGGGTTTGGGCGGAGTCACCTAGTGCAG,14200 fluorescence intensity (a.u.)
13,AATTTGTGTGTAATTTTTTAGGATTTGTGATGTATTTGATCGGAGTCACCTAGTGCAG,9210 fluorescence intensity (a.u.)
14,ACACTCGCACACCCACCACACGCCGTCTCTCTCAAAACAACGGAGTCACCTAGTGCAG,11500 fluorescence intensity (a.u.)
15,CTTTGGCTGGTTCTACTATTTACTACACCATCTGTTTTAACGGAGTCACCTAGTGCAG,10800 fluorescence intensity (a.u.)
16,TTACTACCAATCTGCTGGAGTGGCTCAGTTGCTCATGAGACGGAGTCACCTAGTGCAG,8330 fluorescence intensity (a.u.)
17,GGGGAGGGAGATCTCCTCTCTTCTCTTGTTCTGTTTCTTGCGGAGTCACCTAGTGCAG,12000 fluorescence intensity (a.u.)
18,TTTCATACACATACGTATTACATATTGCATATACCTATTTCGGAGTCACCTAGTGCAG,8610 fluorescence intensity (a.u.)
19,TTAAAGTTGACCAAATTTATAGAAAAATTTAGCAACATCTCGGAGTCACCTAGTGCAG,8820 fluorescence intensity (a.u.)
20,ACTCGATGCGGCCCCACCTGCCGGCCACACTCACCTGCTCCGGAGTCACCTAGTGCAG,8340 fluorescence intensity (a.u.)
21,AGCTACCTCACACGACAGTATTGGTTTTCCGGCCGTTTTCCGGAGTCACCTAGTGCAG,12400 fluorescence intensity (a.u.)
22,CTTTTGGTTATAGCATCATTTTACATTGCAGCTAAAGTTCCGGAGTCACCTAGTGCAG,9160 fluorescence intensity (a.u.)
23,ACCCACTGATCACGAAATCCACACACTGGCCACATCCAAACGGAGTCACCTAGTGCAG,8340 fluorescence intensity (a.u.)
24,CTCTCTCTCTCTGTCTCTCTTCTTCTCGTTTGCATCTTCTCGGAGTCACCTAGTGCAG,10900 fluorescence intensity (a.u.)
25,CCAACCGCTTTCCTTTTGTCCACCGATTGCTCTCTCTTTGCGGAGTCACCTAGTGCAG,9210 fluorescence intensity (a.u.)
26,CCGCCGGCCATCTCGCTCTTGCACGCGCTCGCCGGTAGACCGGAGTCACCTAGTGCAG,8140 fluorescence intensity (a.u.)
27,ACACATCTTCTTCTTCCTGAGCTTAGCATAGTTAGCTTGCCGGAGTCACCTAGTGCAG,8500 fluorescence intensity (a.u.)

# Another view of some results above:
row | Sequence | binding signal
17 | GGGGAGGGAGATCTCCTCTCTTCTCTTGTTCTGTTTCTTGCGGAGTCACCTAGTGCAG | 12000 fluorescence intensity (a.u.)
20 | ACTCGATGCGGCCCCACCTGCCGGCCACACTCACCTGCTCCGGAGTCACCTAGTGCAG | 8340 fluorescence intensity (a.u.)
